# Data published in patent publication US5283246A, “Trimetazidine compounds” (Adir et Compagnie, priority 1991, dated 1994).
# At least one read-out could not be matched to a standard name with certainty.
# Test system: isolated hearts of rats
# Assay: Hypoxia reoxygenation on the isolated heart of a rat
# Design: species or system Wistar rat
# Conditions: Example 1 at 3 × 10^-7 M, Example 10 at 10^-7 M, Example 13 at 7 × 10^-7 M, control 41.6 ± 8.8
# Experimental: The hearts of male Wistar rats (325-375 g--Charles River breed) anaesthetized by the intraperitoneal route with sodium pentobarbital (30 mg/kg) are removed after the injection of heparin i.v. (1 ml/kg) and rapidly perfused by the Langendorff technique at a constant pressure of 76 mmhg and stimulated electrically at 5 Hz. The isovolumetric contractions are recorded by way of a small polyethylene balloon connected to a pressure sensor (P23-Gould) introduced into the left ventricle and inflated so as to obtain a diastolic pressure of approximately 10 mmhg. The physiological solution used, maintained at 37° C., has the following composition (mM): NaCl 118; KCl 4.7; KH2 PO4 1.2; MgCl2 1.2; CaCl2 1.3; NaHCO3 25; glucose 8, pH 7.4/95% O2 +5% CO2.
# After a period of stabilization of from 15 to 30 minutes, the heart is subjected to hypoxia for 60 minutes (effected with 95% N2 and 5% CO2; PO2 <40 mmHg), followed by reoxygenation for 30 minutes; the compound is added to the incubation medium 15 minutes before and during the period of hypoxia.
row,Compound,Left ventricular pressure 30 minutes after reoxygenation (expressed as % of the initial value before hypoxia) [%]
1,"COc1ccc(CN2CCN(CCCOc3cc(C)c(O)c(C)c3C)CC2)c(OC)c1OC [Example 1, 4-(2,3,4-trimethoxybenzyl)-1-[3-(4-hydroxy-2,3,5-trimethylphenoxy)propyl]piperazine]",80.5 ± 15
2,"COc1ccc(CN2CCN(CCCCCOc3cc(C)c(O)c(C)c3C)CC2)c(OC)c1OC [Example 10, 4-(2,3,4-trimethoxybenzyl)-l-[5-(4-hydroxy-2,3,5-trimethylphenoxy)pentyl]piperazine]",75.9 ± 2.1
3,"COc1ccc(CN2CCN(CC(O)CSc3cc(C)c(O)c(C)c3C)CC2)c(OC)c1OC (stereo not drawn) [Example 13, 4-(2,3,4-trimethoxybenzyl)-l-[3-(4-hydroxy-2,3,5-trimethylphenylthio)-2-hydroxypropyl)piperazine]",113.7 ± 18
